The text below walks through data of publication PMC6265451.

The labels stand for the following.
B1: Yth1 (protein, UniProt Q06102 1-208)
chain: MSLIHPDTAKYPFKFEPFLRQEYSFSLDPDRPICEFYNSREGPKSCPRGPLCPKKHVLPIFQNKIVCRHWLRGLCKKNDQCEYLHEYNLRKMPECVFFSKNGYCTQSPDCQYLHIDPASKIPKCENYEMGFCPLGSSCPRRHIKKVFCQRYMTGFCPLGKDECDMEHPQFIIPDEGSKLRIKRDDEINTRKMDEEKERRLNAIINGEV
B2: Fip1 (protein, UniProt P45976 1-327)
chain: MSSSEDEDDKFLYGSDSELALPSSKRSRDDEADAGASSNPDIVKRQKFDSPVEETPATARDDRSDEDIYSDSSDDDSDSDLEVIISLGPDPTRLDAKLLDSYSTAATSSSKDVISVATDVSNTITKTSDERLITEGEANQGVTATTVKATESDGNVPKAMTGSIDLDKEGIFDSVGITTIDPEVLKEKPWRQPGANLSDYFNYGFNEFTWMEYLHRQEKLQQDYNPRRILMGLLSLQQQGKLNSANDTDSNLGNIIDNNNNVNNANMSNLNSNMGNSMSGTPNPPAPPMHPSFPPLPMFGSFPPFPMPGMMPPMNQQPNQNQNQNSK
B3: Ref2 (protein, UniProt P42073 1-533)
chain: MSAPVPQLVNISHALQASTIQQIRLDMVDFNKDCKLSSIQLARIDKYIDSLQAALNQFTKDNLHIERKEKNVTEADIQLYSGLKSMYLDYLNQLIKLKHEKQHHSTPPIANDVSLDFFVNQLPKFSPEERKNYIDNLILNKNSHNRLSKMDGLVDAVINLCVLDTSVAENVRSYMKLLDTLGFQKGSNSTGTKANLKKKLASSKAKIKDSEKEKEKEKDKSKVKMKTKLKPSPLLNNDDKNSSPSPTASTSSMKKLKSGLFNKNEAKSTESLPTSSKKKLSFSKYLNKDDADMTKLGTKRSIDVDFKVNPEASTVASNIISSSTSGSSTTTVATPASSEEPLKKKTKISVQDSNVQSILRNGKPKKARISSIKFLDDSQLIKVYGDDLPNQGLQVSPTQLKKILKPFKEGEPKEIILFEDMSIKLKPLDLMFLKNTNSDDYMDISETKGGPIHCETRTPLIYRKNFNHFNPDLNKRPPREPIEFDLNGNTNSTPTIAKAFGKNSLLLRKDRGGLPYKHVPIVKRNKYPPRPVH

No constants are given. Whether binding was seen depends on the method and setting. Binding seen in cells or lysates may run through a third protein. Here binding means that the protein was enriched with, or labelled near, the bait; the list need not be complete.

The target of the experiment is T1, Pta1-TAPS (S. cerevisiae) (UniProt Q01329).
T1 sequence: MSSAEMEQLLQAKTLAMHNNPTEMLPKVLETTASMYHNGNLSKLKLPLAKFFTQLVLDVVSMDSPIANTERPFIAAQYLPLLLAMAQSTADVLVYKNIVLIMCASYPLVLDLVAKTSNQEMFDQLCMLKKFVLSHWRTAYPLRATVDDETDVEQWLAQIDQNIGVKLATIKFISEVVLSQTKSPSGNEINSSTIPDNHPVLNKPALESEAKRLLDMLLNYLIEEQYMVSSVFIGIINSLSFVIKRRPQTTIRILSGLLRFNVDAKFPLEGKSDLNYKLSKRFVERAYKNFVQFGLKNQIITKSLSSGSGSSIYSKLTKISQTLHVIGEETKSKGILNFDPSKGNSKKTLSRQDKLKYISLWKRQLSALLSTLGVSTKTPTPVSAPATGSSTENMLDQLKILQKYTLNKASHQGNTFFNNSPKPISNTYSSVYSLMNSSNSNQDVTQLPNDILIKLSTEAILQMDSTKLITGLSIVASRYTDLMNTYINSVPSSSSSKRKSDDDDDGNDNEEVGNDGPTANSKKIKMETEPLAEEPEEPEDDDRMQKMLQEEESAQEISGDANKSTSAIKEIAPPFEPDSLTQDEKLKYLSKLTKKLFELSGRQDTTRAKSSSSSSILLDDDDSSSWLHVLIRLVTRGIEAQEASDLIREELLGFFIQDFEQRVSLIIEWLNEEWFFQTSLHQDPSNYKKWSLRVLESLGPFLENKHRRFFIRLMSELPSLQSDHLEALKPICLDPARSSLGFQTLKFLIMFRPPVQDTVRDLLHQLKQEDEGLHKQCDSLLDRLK
As to the kind of experiment: affinity purification with mass spectrometry; TAPS tandem affinity purification from tagged yeast: IgG sepharose, TEV protease elution, Streptactin resin, desthiobiotin elution; SDS-PAGE stained with SYPRO Ruby, excised bands identified by tryptic-digest mass spectrometry.
Regarding B1, the binding entry is “binds”. The result for B2 reads “binds”; that for B3, “binds”.
